Test results published in PubChem BioAssay AID504834 (National Center for Advancing Translational Sciences (NCATS), 2011).
Screen size: about 320,000 compounds; about 22,000 (6.9%) were called active. This list was built around the results that the source calls inconclusive (neither active nor inactive); the mix of calls is not that of the screen. Calls come from the whole dose curve; as a rule, active = well fitted inhibition curve with a large enough effect; inconclusive = small, poorly fitted or top-dose-only effect, or another doubt; inactive = no such curve, though single readings can be large or run the other way. Where the call is inconclusive, the potency comes from a doubtful curve fit.
% is set by controls: 0 for no effect and ±100 for the full control effect; potency is the fitted concentration of half-maximal effect.

Assay: Primary qHTS for delayed death inhibitors of the malarial parasite plastid, 96 hour incubation
Conditions: P. falciparum luciferase reporter growth; series mostly up to 28.7 µM; activity change, negative = inhibition: at the top concentration
Summary of the method: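 Two-generation exposure (96 h) targets delayed-death phenotype. Reporter parasites carrying integrated firefly luciferase, in red cells at 2% hematocrit and 0.05% parasitemia final, kept at 37 C, 5% CO2; luminescence loss indicates inhibition.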
For Cc1ccc(C(=O)N/C(=C\c2ccc(-c3ccc([N+](=O)[O-])cc3)o2)C(=O)NC2CCS(=O)(=O)C2)cc1 (stereo not given), the Potency was inconclusive: 11.7 µM [inhibitor, single point].
With CN(C(=O)c1cccs1)C1(C)CCS(=O)(=O)C1 (stereo not given) the Potency was active: 10.4 µM.
In the case of CC1(c2ccccc2)CC(C)(C)n2c(O)c(C3=NC(=S)NC3=O)c3cccc1c32 (stereo not given), the “activity change, negative = inhibition” value is reported as inactive: 0%.
With S=c1[nH]nc(Cc2noc3ccccc23)n1-c1ccccc1 the Potency was inconclusive: 13.1 µM [inhibitor, partial curve, poor fit].
With CCOc1ccc(NC(=O)CCCN2C(=O)C(c3ccccc3)Oc3cccnc32)cc1 (stereo not given) the Potency was inconclusive: 10.4 µM [inhibitor, single point].
In the case of Cc1cccc(OCC(=O)Nc2ccc(C(=O)NCc3cccnc3)cc2)c1, the “activity change, negative = inhibition” value is reported as inactive: 5.2%.
For C[C@@H](C(=O)NCCc1ccccc1)N1C(=O)N2CCc3c([nH]c4ccccc34)[C@@]2(C)C1=O, the Potency was inconclusive: 0.0037 µM [inhibitor, full curve, poor fit].
In the case of Cc1ccc(S(=O)(=O)c2nc(-c3ccccc3)oc2N2CCC(C(N)=O)CC2)cc1, the Potency is reported as active: 13.1 µM.
For Cc1ccc(CN2CCSCC2)cc1, the “activity change, negative = inhibition” value was inactive: -89.9%.
In the case of O=C(CCN1CCc2ccccc2CC1)c1ccc2c(c1)OCCO2, the “activity change, negative = inhibition” value is reported as inactive: 1.44%.
For COc1ccc(-c2cnc(N)nc2-c2ccc(OC)cc2O)cc1, the “activity change, negative = inhibition” value was inactive: 33%.
In the case of CCOc1cc(C(=O)NCc2ccc(C)cc2)ccc1OCC(=O)N1CCOCC1, the “activity change, negative = inhibition” value is reported as inactive: -6.07%.
In the case of Cc1ccc(-c2nc(CS(=O)CC(=O)NCCN3CCCCC3C)c(C)o2)cc1 (stereo not given), the Potency is reported as inconclusive: 18.5 µM [inhibitor, single point].
For CC/C=C\[C@H](O)[C@H](O)C1=C(C)C(=O)[C@]2(O1)C(=O)N[C@@](OC)(C(=O)c1ccccc1)C2O (stereo not given in full), the Potency was inconclusive: 18.5 µM [inhibitor, single point].
In the case of Oc1ccc(N2CCN(c3ccnc4cc(Cl)ccc34)CC2)cc1, the Potency is reported as active: 2.33 µM.
For COC(=O)[C@H](CC(C)C)NS(=O)(=O)N[C@@H](CC(C)C)C(=O)OC, the “activity change, negative = inhibition” value was inactive: 36.3%.
In the case of Brc1csc(/C=N/Nc2nc3ccccc3s2)c1, the “activity change, negative = inhibition” value is reported as inactive: 14.5%.
In the case of Cc1cccc(-n2c(=O)c3c(C)c(C)sc3n(CC(N)=O)c2=O)c1, the “activity change, negative = inhibition” value is reported as inactive: 32.2%.
For Clc1ccc(-c2nc3ccc(Cl)cn3c2CN2CCOCC2)cc1, the Potency was inconclusive: 11.7 µM [inhibitor, single point].
For Cc1cccn2c(CNCCCOc3cccnc3)c(C(=O)N3CCOCC3)nc12, the Potency was inconclusive: 13.1 µM [inhibitor, partial curve].
With CN(C)S(=O)(=O)c1cccc(-c2nnc3n2CCCCC3)c1 the “activity change, negative = inhibition” value was inactive: 42.6%.
For Cc1ccccc1NC(=O)Cc1nnc(SCC(=O)NC2=NCCS2)n1C, the Potency was inconclusive: 10.4 µM [inhibitor, single point].
For COc1cccc(CNC(=O)C(=O)NCC2OCCCN2S(=O)(=O)c2cc(C)ccc2C)c1 (stereo not given), the Potency was inconclusive: 14.7 µM [inhibitor, single point].
In the case of O=C1c2ccccc2CN1C(CO)Cc1ccccc1 (stereo not given), the “activity change, negative = inhibition” value is reported as inactive: 23.7%.
In the case of O=Cc1c(Sc2ccccn2)nc2ccccn2c1=O, the Potency is reported as inconclusive: 20.8 µM [inhibitor, partial curve, poor fit].
In the case of Cc1cc(=O)oc2c(C)c(OC(C)C(=O)NC3CCN(Cc4ccccc4)CC3)ccc12 (stereo not given), the Potency is reported as inconclusive: 2.33 µM [inhibitor, full curve, poor fit].
With CCCCc1cc(=O)oc2cc(C)cc(OCC(=O)N3CCC(C(=O)O)(c4ccccc4)CC3)c12 the Potency was inconclusive: 11.7 µM [inhibitor, partial curve, poor fit].
With COCCn1c(SCC(=O)N2CCC(C)CC2)nc2ccccc2c1=O the “activity change, negative = inhibition” value was inactive: -10.3%.
With O=C(NC(NC(=S)Nc1cccc(C(=O)O)c1)C(Cl)(Cl)Cl)OCc1ccccc1 (stereo not given) the Potency was inconclusive: 18.5 µM [inhibitor, single point].
In the case of COc1cccc(-c2cc(C(=O)N3CCOCC3)no2)c1, the Potency is reported as inconclusive: 13.1 µM [inhibitor, single point].
In the case of CCc1ccc(CNC(=O)c2nn(C)c3c2CS(=O)(=O)c2ccccc2-3)cc1, the Potency is reported as inconclusive: 5.22 µM [inhibitor, partial curve].
In the case of Cn1cnc([N+](=O)[O-])c1S(=O)(=O)c1cccc(Cl)c1, the Potency is reported as inconclusive: 4.15 µM [inhibitor, partial curve, poor fit].
For Nc1nc(N2CCOCC2)n[nH]1, the “activity change, negative = inhibition” value was inactive: -5.56%.
For COc1ccc(CC(=O)NC(c2ccccc2)c2ccc(C)cc2)c(OC)c1 (stereo not given), the Potency was inconclusive: 0.147 µM [inhibitor, full curve, poor fit].
With Cc1ccc(-c2c(C#N)c(N)nc3c2CCCC3)o1 the Potency was inconclusive: 18.5 µM [inhibitor, single point].
With COC(=O)C1=C(c2cccc(Cl)c2)C[C@@H]2CC[C@H]1N2C(=O)N1CCCC1 the Potency was inconclusive: 20.8 µM [inhibitor, partial curve, poor fit].
For CC(=O)NN1C(=O)/C(=C\c2ccc(Br)o2)SC1=S, the Potency was inconclusive: 18.5 µM [inhibitor, single point].
For Cc1cc(C(=O)OC(C(=O)Nc2cccc(C(F)(F)F)c2)c2ccccc2)c(C)o1 (stereo not given), the Potency was active: 5.22 µM.
In the case of CCOC(=O)c1cc(CC)sc1NC(=O)c1ccc([N+](=O)[O-])c(N2CCOCC2)c1, the Potency is reported as inconclusive: 14.7 µM [inhibitor, partial curve, poor fit].
For Cc1nn(Cc2nnc(SCC(=O)Nc3cccc(C(F)(F)F)c3)n2C)c(C)c1[N+](=O)[O-], the Potency was inconclusive: 11.7 µM [inhibitor, single point].
For Cc1cc(/C=C(\C#N)C(=O)Nc2ccccc2F)c(C)[nH]1, the “activity change, negative = inhibition” value was inactive: -26.7%.
For O=C(COC(=O)c1ccccc1NC(=O)C1CC1)c1ccc2c(c1)OCCO2, the Potency was inconclusive: 3.7 µM [inhibitor, full curve].
For O=C(CCNC(=O)c1ccc([N+](=O)[O-])cc1)NCCc1ccc(Cl)cc1, the Potency was inconclusive: 8.28 µM [inhibitor, partial curve].
For CCC(=O)N1CCc2cc(S(=O)(=O)CCC(=O)N3CCc4ccccc4C3)ccc21, the Potency was active: 11.7 µM.
